In the supplement of paper PMC10849652 one finds log2 fold change data, which are given here for 32 targets.

Sequences of proteins named here, by UniProt entry; tags and fusion partners are left off. A change or cut given only in a name is not applied to a line headed by its entry.
UniProt Q92598: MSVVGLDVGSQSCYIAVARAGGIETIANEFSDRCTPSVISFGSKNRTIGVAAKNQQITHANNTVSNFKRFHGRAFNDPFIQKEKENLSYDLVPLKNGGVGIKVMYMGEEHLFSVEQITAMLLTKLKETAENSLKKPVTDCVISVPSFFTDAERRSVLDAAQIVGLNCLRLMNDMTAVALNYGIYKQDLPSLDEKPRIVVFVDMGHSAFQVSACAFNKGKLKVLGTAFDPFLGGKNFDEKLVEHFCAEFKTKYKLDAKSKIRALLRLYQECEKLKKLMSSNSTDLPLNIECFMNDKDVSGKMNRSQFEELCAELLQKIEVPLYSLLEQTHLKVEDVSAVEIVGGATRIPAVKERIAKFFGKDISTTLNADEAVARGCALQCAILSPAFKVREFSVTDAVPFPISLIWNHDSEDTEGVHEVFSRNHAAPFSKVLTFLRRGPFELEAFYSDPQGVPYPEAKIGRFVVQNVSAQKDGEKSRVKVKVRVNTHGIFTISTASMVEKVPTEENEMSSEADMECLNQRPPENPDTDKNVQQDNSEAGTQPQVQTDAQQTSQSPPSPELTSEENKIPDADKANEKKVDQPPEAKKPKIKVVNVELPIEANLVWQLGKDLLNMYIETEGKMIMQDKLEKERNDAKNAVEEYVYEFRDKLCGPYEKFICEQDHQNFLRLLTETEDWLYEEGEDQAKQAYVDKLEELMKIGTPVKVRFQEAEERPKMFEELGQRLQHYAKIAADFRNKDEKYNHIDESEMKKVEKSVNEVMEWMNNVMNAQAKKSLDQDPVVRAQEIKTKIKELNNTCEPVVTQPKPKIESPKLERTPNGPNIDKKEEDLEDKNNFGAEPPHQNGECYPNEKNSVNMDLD
UniProt P82970: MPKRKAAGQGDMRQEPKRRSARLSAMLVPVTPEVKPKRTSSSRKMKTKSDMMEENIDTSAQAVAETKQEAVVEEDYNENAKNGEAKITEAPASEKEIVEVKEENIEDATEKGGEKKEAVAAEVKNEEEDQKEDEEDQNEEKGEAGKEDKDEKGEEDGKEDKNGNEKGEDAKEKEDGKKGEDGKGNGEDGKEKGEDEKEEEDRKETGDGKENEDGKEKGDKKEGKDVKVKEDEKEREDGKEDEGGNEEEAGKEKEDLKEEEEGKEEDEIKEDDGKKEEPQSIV
UniProt P31942: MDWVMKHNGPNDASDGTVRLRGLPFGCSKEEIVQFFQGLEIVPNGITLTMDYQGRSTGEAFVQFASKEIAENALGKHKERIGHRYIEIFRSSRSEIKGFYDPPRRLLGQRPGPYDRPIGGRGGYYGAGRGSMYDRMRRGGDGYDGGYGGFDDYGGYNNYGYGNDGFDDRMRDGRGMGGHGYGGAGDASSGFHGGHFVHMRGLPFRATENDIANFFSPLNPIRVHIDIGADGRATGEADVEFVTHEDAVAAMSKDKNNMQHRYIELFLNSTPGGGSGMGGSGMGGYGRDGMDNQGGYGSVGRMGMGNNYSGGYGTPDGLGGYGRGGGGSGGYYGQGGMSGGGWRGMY
UniProt P35914: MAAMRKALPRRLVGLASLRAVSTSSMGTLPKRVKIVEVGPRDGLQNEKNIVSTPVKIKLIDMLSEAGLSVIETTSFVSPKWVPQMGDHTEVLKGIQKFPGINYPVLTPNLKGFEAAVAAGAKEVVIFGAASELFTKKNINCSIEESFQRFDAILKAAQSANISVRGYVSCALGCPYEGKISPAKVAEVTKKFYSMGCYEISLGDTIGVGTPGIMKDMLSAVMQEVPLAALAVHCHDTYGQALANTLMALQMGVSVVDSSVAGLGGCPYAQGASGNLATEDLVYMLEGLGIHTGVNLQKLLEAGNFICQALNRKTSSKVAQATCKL
UniProt O15347: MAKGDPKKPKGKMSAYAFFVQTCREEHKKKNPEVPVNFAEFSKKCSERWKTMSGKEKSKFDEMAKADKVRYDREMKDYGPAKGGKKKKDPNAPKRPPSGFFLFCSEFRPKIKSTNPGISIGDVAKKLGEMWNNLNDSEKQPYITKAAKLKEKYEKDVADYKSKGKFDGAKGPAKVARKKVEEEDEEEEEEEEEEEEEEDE
UniProt Q5SSJ5: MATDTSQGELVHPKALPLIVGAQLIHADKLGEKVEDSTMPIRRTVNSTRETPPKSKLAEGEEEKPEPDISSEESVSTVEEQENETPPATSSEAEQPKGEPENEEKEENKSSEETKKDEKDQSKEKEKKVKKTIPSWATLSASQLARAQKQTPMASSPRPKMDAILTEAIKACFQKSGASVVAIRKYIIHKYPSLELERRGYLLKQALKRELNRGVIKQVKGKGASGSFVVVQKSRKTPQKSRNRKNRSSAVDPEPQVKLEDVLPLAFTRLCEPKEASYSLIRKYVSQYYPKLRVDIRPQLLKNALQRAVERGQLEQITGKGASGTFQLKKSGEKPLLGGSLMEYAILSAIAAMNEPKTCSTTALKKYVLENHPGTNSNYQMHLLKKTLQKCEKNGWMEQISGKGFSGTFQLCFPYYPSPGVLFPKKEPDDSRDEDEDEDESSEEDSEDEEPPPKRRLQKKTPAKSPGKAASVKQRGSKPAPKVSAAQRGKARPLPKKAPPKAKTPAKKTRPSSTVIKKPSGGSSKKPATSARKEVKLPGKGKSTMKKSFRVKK
UniProt Q9P2D0: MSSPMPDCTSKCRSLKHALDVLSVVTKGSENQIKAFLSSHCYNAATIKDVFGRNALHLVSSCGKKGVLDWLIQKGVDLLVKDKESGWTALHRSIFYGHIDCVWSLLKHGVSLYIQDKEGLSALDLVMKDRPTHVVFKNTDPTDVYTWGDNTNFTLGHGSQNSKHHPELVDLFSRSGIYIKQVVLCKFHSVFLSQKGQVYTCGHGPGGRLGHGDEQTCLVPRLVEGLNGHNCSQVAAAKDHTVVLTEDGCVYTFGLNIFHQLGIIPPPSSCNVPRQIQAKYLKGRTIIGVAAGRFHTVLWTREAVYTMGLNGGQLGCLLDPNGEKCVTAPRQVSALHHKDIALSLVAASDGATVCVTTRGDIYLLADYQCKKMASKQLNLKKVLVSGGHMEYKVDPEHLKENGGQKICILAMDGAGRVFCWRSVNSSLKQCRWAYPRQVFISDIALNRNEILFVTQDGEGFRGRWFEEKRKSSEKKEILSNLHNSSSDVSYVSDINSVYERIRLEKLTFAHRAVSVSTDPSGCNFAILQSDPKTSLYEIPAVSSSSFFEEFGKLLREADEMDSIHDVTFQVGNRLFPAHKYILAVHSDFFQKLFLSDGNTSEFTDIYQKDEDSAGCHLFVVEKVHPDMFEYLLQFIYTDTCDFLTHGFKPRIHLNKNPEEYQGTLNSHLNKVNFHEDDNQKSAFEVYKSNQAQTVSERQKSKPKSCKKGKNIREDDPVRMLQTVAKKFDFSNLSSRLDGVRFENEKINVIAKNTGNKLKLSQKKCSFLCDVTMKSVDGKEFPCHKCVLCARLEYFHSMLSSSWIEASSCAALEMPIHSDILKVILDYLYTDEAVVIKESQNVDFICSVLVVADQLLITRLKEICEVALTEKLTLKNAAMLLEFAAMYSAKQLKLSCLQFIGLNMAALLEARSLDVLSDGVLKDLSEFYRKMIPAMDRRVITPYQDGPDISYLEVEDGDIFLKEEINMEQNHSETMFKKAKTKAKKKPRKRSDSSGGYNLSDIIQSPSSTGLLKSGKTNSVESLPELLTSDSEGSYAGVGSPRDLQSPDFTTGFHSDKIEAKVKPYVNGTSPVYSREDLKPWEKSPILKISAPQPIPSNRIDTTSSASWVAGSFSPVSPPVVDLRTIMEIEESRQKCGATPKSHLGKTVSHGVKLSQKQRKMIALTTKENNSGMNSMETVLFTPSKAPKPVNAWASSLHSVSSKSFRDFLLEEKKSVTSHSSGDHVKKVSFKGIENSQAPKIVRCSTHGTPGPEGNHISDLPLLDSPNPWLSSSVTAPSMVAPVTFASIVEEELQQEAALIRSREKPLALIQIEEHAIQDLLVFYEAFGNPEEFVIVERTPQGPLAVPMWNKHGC
UniProt O00291: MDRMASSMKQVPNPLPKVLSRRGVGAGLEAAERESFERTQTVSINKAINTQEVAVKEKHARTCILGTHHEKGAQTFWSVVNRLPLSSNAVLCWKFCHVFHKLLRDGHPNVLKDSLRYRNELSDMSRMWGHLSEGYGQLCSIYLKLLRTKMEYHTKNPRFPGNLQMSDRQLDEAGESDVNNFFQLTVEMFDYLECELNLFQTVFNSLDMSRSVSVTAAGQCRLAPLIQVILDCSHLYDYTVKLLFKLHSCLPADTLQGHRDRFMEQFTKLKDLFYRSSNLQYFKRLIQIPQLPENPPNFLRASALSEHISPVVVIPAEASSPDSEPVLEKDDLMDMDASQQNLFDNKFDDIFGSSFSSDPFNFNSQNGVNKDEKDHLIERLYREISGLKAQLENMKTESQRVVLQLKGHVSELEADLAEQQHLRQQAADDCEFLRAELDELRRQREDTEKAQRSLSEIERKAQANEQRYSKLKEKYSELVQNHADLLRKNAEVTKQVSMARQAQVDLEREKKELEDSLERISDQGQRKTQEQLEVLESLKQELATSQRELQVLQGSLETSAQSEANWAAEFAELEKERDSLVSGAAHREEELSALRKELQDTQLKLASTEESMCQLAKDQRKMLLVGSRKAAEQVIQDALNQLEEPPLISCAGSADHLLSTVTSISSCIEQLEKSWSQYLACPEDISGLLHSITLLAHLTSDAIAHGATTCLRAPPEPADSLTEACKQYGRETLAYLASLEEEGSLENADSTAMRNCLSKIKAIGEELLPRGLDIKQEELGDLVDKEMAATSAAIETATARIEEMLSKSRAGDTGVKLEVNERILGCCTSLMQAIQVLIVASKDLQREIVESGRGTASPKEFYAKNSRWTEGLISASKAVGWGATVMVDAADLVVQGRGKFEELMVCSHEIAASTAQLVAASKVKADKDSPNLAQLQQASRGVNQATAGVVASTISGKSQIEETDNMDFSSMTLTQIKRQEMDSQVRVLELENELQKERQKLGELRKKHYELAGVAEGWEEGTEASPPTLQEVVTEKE
UniProt Q9NZL4: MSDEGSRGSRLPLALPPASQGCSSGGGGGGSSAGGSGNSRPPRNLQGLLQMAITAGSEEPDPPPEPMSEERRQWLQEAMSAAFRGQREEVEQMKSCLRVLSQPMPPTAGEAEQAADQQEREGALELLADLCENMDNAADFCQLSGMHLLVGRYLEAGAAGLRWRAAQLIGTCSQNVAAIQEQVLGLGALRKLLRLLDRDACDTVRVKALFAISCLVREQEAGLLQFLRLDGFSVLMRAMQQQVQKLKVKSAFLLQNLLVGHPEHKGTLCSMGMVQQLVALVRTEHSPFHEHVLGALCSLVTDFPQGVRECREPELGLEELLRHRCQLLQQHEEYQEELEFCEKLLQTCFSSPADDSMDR
UniProt Q9Y4L1: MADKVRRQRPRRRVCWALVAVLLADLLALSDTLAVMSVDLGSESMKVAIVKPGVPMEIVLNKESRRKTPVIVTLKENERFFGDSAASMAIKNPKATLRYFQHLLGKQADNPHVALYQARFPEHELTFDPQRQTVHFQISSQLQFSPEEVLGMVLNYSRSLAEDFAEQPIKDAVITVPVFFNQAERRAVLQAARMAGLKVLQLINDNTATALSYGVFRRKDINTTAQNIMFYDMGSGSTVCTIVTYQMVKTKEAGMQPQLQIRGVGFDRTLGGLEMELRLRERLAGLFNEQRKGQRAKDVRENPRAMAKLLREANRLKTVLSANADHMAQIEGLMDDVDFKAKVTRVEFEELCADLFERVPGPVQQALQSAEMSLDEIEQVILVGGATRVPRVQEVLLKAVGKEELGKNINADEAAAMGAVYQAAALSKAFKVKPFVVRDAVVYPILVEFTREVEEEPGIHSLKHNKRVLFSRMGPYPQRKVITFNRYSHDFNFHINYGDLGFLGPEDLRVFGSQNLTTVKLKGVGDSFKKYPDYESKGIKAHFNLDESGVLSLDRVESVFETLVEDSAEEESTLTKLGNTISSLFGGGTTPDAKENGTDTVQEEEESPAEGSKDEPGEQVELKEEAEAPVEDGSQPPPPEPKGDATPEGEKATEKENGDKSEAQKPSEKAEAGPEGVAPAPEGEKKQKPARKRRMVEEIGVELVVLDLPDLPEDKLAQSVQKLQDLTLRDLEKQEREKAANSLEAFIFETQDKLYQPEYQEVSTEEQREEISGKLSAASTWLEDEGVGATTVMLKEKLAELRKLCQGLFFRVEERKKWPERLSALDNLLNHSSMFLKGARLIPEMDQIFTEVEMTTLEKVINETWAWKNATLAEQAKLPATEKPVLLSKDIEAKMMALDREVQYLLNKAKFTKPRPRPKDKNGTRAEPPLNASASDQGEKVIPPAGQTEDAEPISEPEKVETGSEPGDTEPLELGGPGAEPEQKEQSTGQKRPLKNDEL
UniProt Q9BUP3: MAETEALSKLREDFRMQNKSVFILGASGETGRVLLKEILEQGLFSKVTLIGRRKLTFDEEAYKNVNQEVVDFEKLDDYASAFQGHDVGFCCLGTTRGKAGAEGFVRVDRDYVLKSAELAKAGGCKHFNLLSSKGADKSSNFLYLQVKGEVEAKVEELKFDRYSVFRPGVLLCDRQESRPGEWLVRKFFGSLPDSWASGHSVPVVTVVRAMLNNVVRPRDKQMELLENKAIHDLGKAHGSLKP

The list shows a part of the results.

Compound in one assay: Cc1nc(Nc2n[nH]c3c2CN(C(=O)N[C@H](CN(C)C)c2ccccc2)C3(C)C)c2sccc2n1
Description: log2 fold change, soluble protein after heating vs DMSO (PISA); higher = thermal stabilisation; K562 cells, 10 uM, 30 min; active = over 0.2 and 3.5 SD of the protein, either way, in both replicates (recomputed). The gist of the method:
(§1)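 For each measurement, 10 μM compound was applied for 30 min to K562 cells at 2×10^6 cells/mL. Aliquots were heated for 3 min across 48°C-58°C, pooled, and extracted in PBS with 0.5% NP-40 at 4°C; the supernatant after 21,000xg for 90 min was soluble protein. This was quantified by TMTpro 16plex LC-MS/MS with channel sums equalised, and thermal stability was reported relative to control samples from duplicates, on a log2 fold-change scale.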
As for HSPH1 (UniProt Q92598), the log2 fold change is inactive: -0.023.
Regarding HSPA8 (UniProt E9PK54), the log2 fold change is inactive: -0.011.
Consider HNRNPK isoform 2 (UniProt P61978), for which the log2 fold change was inactive: -0.206.
Turning to HMGN5 (UniProt P82970), the log2 fold change was inactive: 0.002.
In the case of HIST2H2BF isoform 2 (UniProt Q5QNW6), the log2 fold change is inactive: -0.006.
On to HSP90AB1 (UniProt P08238), for which the log2 fold change is inactive: 0.035.
For the target HTRA2 (UniProt O43464), the log2 fold change is inactive: -0.008.
With HSPB11 (UniProt Q9Y547), the log2 fold change was inactive: 0.066.
Take HNRNPH3 (UniProt P31942): the log2 fold change is inactive: -0.149.
Still for that read-out and setting: as for HMGB1 (UniProt P09429), the figure is inactive: -0.01; as for HMGCL (UniProt P35914), inactive: 0.012.
For HMGB3 (UniProt O15347), the log2 fold change is inactive: -0.013.
As to HMGN1 (UniProt P05114), the log2 fold change is inactive: 0.057.
Same read-out and setting: as for HTATSF1 (UniProt O43719), the figure is inactive: -0.203.
Same read-out and setting: as for HSP90B1 (UniProt P14625), the figure is inactive: -0.006; as for HP1BP3 (UniProt Q5SSJ5), inactive: -0.008.
For IBTK (UniProt Q9P2D0), the log2 fold change was inactive: 0.014.
With HOOK3 (UniProt Q86VS8), the log2 fold change is inactive: -0.078.
Still for that read-out and setting: as for HNRNPM (UniProt P52272), the figure is inactive: -0.168.
As for HIRIP3 (UniProt Q9BW71), the log2 fold change is inactive: -0.065.
As for HUS1 (UniProt O60921), the log2 fold change was inactive: 0.039.
Take IDE (UniProt P14735): the log2 fold change was inactive: -0.042.
HNRNPUL1 (UniProt Q9BUJ2): the log2 fold change is inactive: -0.008.
Turning to HNRNPH1 (UniProt P31943), the log2 fold change is inactive: -0.236.
Regarding HIP1 (UniProt O00291), the log2 fold change is inactive: 0.063.
With HINT1 (UniProt P49773), the log2 fold change was inactive: 0.004.
HSPBP1 isoform 3 (UniProt Q9NZL4): the log2 fold change is inactive: -0.025.
For the target HYOU1 (UniProt Q9Y4L1), the log2 fold change is inactive: 0.028.
Consider HTATIP2 isoform 3 (UniProt Q9BUP3), for which the log2 fold change is inactive: -0.056.
HK2 (UniProt P52789): the log2 fold change was inactive: -0.194.
Consider HSPA1A (UniProt P0DMV8), for which the log2 fold change was inactive: -0.022.
The same measure, in the same setting: as for HMCN1 (UniProt Q96RW7), the figure is inactive: 0.061.

Compound in another assay: Cc1nc(Nc2ncc(C(=O)Nc3c(C)cccc3Cl)s2)cc(N2CCN(CCO)CC2)n1 [dasatinib]
Described as above. The gist of the method: as §1
On to HSPH1 (UniProt Q92598), for which the log2 fold change was inactive: -0.078.
For HSPA8 (UniProt E9PK54), the log2 fold change is inactive: 0.011.
For HNRNPK isoform 2 (UniProt P61978), the log2 fold change was inactive: -0.072.
Turning to HMGN5 (UniProt P82970), the log2 fold change was inactive: 0.067.
With HIST2H2BF isoform 2 (UniProt Q5QNW6), the log2 fold change is inactive: 0.147.
As for HSP90AB1 (UniProt P08238), the log2 fold change was inactive: -0.063.
As for HTRA2 (UniProt O43464), the log2 fold change was inactive: -0.013.
For HSPB11 (UniProt Q9Y547), the log2 fold change was inactive: -0.046.
Regarding HNRNPH3 (UniProt P31942), the log2 fold change was inactive: -0.016.
In the case of HMGB1 (UniProt P09429), the log2 fold change is inactive: 0.022.
On to HMGCL (UniProt P35914), for which the log2 fold change was inactive: -0.038.
Still for that read-out and setting: as for HMGB3 (UniProt O15347), the figure is inactive: 0.066; as for HMGN1 (UniProt P05114), inactive: 0.146; as for HTATSF1 (UniProt O43719), inactive: -0.078.
For the target HSP90B1 (UniProt P14625), the log2 fold change is inactive: 0.009.
Consider HP1BP3 (UniProt Q5SSJ5), for which the log2 fold change was inactive: 0.009.
Still for that read-out and setting: as for IBTK (UniProt Q9P2D0), the figure is inactive: 0.052.
As for HOOK3 (UniProt Q86VS8), the log2 fold change is inactive: -0.07.
Turning to HNRNPM (UniProt P52272), the log2 fold change was inactive: 0.022.
On to HIRIP3 (UniProt Q9BW71), for which the log2 fold change is inactive: -0.037.
Still for that read-out and setting: as for HUS1 (UniProt O60921), the figure is inactive: 0.03.
For the target IDE (UniProt P14735), the log2 fold change was inactive: -0.136.
For HNRNPUL1 (UniProt Q9BUJ2), the log2 fold change is inactive: -0.061.
As to HNRNPH1 (UniProt P31943), the log2 fold change was inactive: -0.083.
For the target HIP1 (UniProt O00291), the log2 fold change was inactive: 0.004.
Consider HINT1 (UniProt P49773), for which the log2 fold change was inactive: 0.081.
HSPBP1 isoform 3 (UniProt Q9NZL4): the log2 fold change was inactive: -0.085.
For the target HYOU1 (UniProt Q9Y4L1), the log2 fold change was inactive: 0.005.
As for HTATIP2 isoform 3 (UniProt Q9BUP3), the log2 fold change is inactive: -0.046.
In the case of HK2 (UniProt P52789), the log2 fold change is inactive: -0.106.
For the target HSPA1A (UniProt P0DMV8), the log2 fold change is inactive: 0.074.
HMCN1 (UniProt Q96RW7): the log2 fold change is inactive: 0.147.

Compound in another assay: Cc1ncc(-c2ccnc(Nc3ccc(S(C)(=O)=O)cc3)n2)n1C(C)C
Described as above. The gist of the method: as §1
In the case of HSPH1 (UniProt Q92598), the log2 fold change was inactive: 0.022.
With HSPA8 (UniProt E9PK54), the log2 fold change is inactive: 0.072.
HNRNPK isoform 2 (UniProt P61978): the log2 fold change is inactive: -0.136.
Turning to HMGN5 (UniProt P82970), the log2 fold change was inactive: 0.026.
Still for that read-out and setting: as for HIST2H2BF isoform 2 (UniProt Q5QNW6), the figure is inactive: 0.012; as for HSP90AB1 (UniProt P08238), inactive: 0.036.
Take HTRA2 (UniProt O43464): the log2 fold change is inactive: -0.006.
Regarding HSPB11 (UniProt Q9Y547), the log2 fold change is inactive: 0.035.
The same measure, in the same setting: as for HNRNPH3 (UniProt P31942), the figure is inactive: -0.004.
Regarding HMGB1 (UniProt P09429), the log2 fold change was inactive: 0.012.
Still for that read-out and setting: as for HMGCL (UniProt P35914), the figure is inactive: -0.02; as for HMGB3 (UniProt O15347), inactive: 0.03.
HMGN1 (UniProt P05114): the log2 fold change was inactive: 0.019.
With HTATSF1 (UniProt O43719), the log2 fold change is inactive: -0.066.
For HSP90B1 (UniProt P14625), the log2 fold change is inactive: -0.018.
For HP1BP3 (UniProt Q5SSJ5), the log2 fold change was inactive: 0.125.
For the target IBTK (UniProt Q9P2D0), the log2 fold change is inactive: -0.136.
For the target HOOK3 (UniProt Q86VS8), the log2 fold change is inactive: 0.009.
As for HNRNPM (UniProt P52272), the log2 fold change is inactive: -0.027.
On to HIRIP3 (UniProt Q9BW71), for which the log2 fold change is inactive: -0.015.
Turning to HUS1 (UniProt O60921), the log2 fold change was inactive: -0.036.
IDE (UniProt P14735): the log2 fold change was inactive: -0.034.
Take HNRNPUL1 (UniProt Q9BUJ2): the log2 fold change is inactive: 0.041.
Still for that read-out and setting: as for HNRNPH1 (UniProt P31943), the figure is inactive: -0.116.
The same measure, in the same setting: as for HIP1 (UniProt O00291), the figure is inactive: -0.079; as for HINT1 (UniProt P49773), inactive: -0.036; as for HSPBP1 isoform 3 (UniProt Q9NZL4), inactive: -0.017.
For the target HYOU1 (UniProt Q9Y4L1), the log2 fold change is inactive: -0.036.
In the case of HTATIP2 isoform 3 (UniProt Q9BUP3), the log2 fold change is inactive: -0.002.
As for HK2 (UniProt P52789), the log2 fold change was inactive: -0.03.
With HSPA1A (UniProt P0DMV8), the log2 fold change was inactive: 0.004.
Same read-out and setting: as for HMCN1 (UniProt Q96RW7), the figure is inactive: 0.388.
